This note sets out measurements from article PMC4805248.

No signal at the amounts used counts as a negative. Where a protein sequence is shown, tags need not be part of it. For part of these data: For at least one entry, the source does not settle the construct or the ends of the probe. For part of these data: A weaker result is weaker than the reference pair of the same experiment.

Data set [1] has as its target T1, PgMntR ΔFeoA2 (Porphyromonas gingivalis W50) (UniProt Q7MVL0).
T1 sequence (looked up, limits assumed): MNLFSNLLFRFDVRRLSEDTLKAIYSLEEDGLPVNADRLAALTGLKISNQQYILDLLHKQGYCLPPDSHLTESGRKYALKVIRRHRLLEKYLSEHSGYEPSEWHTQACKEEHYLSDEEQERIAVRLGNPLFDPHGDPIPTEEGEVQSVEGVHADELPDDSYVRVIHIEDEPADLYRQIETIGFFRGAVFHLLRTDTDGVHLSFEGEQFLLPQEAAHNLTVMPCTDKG
Briefly: EMSA. The following applies: EMSA: 1 nM biotinylated DNA, 700-1000 nM protein, 90 mM Bis-Tris borate pH 6.8 (1 mM TCEP, 5 mM DTT) or 10 mM Tris-Cl pH 7.5 or Tris-acetate pH 6.8, 50 mM KCl, recombinant protein, protein details: His-tag cleaved, N-terminal GPG left, label: 5' biotin on both primers, probe letters rebuilt from the primers and the genome. (In EMSA bound probe runs differently from free probe, usually more slowly.)

Data set [2] addresses T2, PgMntR (Porphyromonas gingivalis W50 (W83 locus PG1044)) (UniProt Q7MVL0).
T2 sequence (looked up): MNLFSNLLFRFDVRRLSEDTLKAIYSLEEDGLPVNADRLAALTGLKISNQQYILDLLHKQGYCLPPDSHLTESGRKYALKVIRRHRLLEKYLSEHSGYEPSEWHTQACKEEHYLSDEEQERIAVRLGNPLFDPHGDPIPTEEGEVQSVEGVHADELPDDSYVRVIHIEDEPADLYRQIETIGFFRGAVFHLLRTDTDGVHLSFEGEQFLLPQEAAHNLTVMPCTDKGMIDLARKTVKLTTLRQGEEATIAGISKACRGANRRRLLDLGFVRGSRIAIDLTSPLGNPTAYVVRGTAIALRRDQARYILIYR
The experiment in a line: EMSA. Conditions: EMSA: 1 nM biotinylated DNA, 700-1000 nM protein, 90 mM Bis-Tris borate pH 6.8 (1 mM TCEP, 5 mM DTT) or 10 mM Tris-Cl pH 7.5 or Tris-acetate pH 6.8, 50 mM KCl, recombinant protein, residues 1-310, protein details: His-tag cleaved by HRV 3C, N-terminal GPG left, label: 5' biotin on both primers, probe letters rebuilt from the primers and the genome.

For “GCTTCTATAACTTCTATTATTACCGAAGTGTTCGGTCTGTTGGCCTGTGGCACAACGTTTTCAGTATGACAAAGGTGCTTATTTTATCGAAGAATCCGTCAAACTGCAGGCTCTCCTGTGCTATTTTACCTGCATTGAGGTATCCGGAGGCGGAGTTGCTTCTACAAGATCGTTTCCACTTTCTTCCCTGACTATTCCGGTCATTGACAGACTGAAAAATACGTACCAAAAAAGTTTTCAACAACGAAGATGAGTTTGGAATGATTCCAAATAAGCACCTGAAAGGAAGACGATTTCGAAGTCAAAAAGGCAAGAAAAGGAAGTTTTTCAGGTAGAAACATGACTTTTGGAAAGAAGATAACGATTTATATACAAATCATTTACG (double strand) [P1 (promoter region upstream of pgmntR/FB2 operon)]”, the binding result is reported as “no binding” in data set [1] (20 uM Fe2+, Tris-acetate pH 6.8); “no binding” in data set [1] (Mn2+); “no binding” in data set [1] (no metal); “binds” in data set [2] (Mn2+, pH 6.8, reducing, binding increased over apo); “binds” in data set [2] (Mn2+, pH 7.5 Tris, concentration dependent 750-1000 nM, complete at >=950 nM); “binds more weakly” in data set [2] (higher Fe2+ (up to 40 uM), pH 6.8, reducing, complex dissociated). In addition, the binding result is “binds” in data set [2] (low Fe2+, pH 6.8, reducing, little effect); “binds” in data set [2] (no metal, 700 nM protein, pH 6.8, reducing, lower affinity than with Mn2+); “binds” in data set [2] (no metal, pH 7.5 Tris); “binds” in data set [2] (up to 1 mM EDTA, 700 nM protein (apo)).
In the case of “GGTTCATATCAATGTAGATACATTGGCTGCTTTGCTGAAAGACATAGAACTGACAGCCGTGGAATTGAATTTCAACTGTTGTATCACACGTGCCGCAGACCTGCTGTCAGCATTCTCTGCATATGTCAAAAAGGTTGGTGCCGATCCGAATAAATGTCATGGTTCGGTCAGCTACGACCCGTTCAAAAAGCAGCTCGTCCGCGGCGTATCCAATCCCGATTGGGTGAAGATGACACTCCCCGTCATGGATGCTGCACGCGAACTGCCTGCTTTCCGGGTGCTCAATGTAAATGCCGTGAATCTGTCCGATGCCGGCGCATTCATTACCCAAGAGCTGGGATATGCTTTGGCTTGGGGCGCAGAGCTGTTGGACAAGCTGACCGAT (double strand) [C1 (internal PG1656)]”, the binding result in data set [2] (Mn2+, pH 7.5 Tris) was “no binding”; in data set [2] (no metal, 700 nM protein, pH 6.8, reducing) it was “no binding”.
